The list shows a part of the results. Most values lie at the level of the controls, where differences are scatter.
compound: CN[C@@H]1C[C@H]2O[C@@](C)([C@@H]1OC)n1c3ccccc3c3c4c(c5c6ccccc6n2c5c31)C(=O)NC4 [staurosporine]; assay: log2 fold change of tryptic peptide abundance, ligand vs vehicle (limited proteolysis) (log2 ratio); higher = more trypsin-susceptible (destabilized); settings: ligand concentration: 20 uM; sample: mouse liver crude lysate; replicate design: treated separately

Sequences of proteins named here, by UniProt entry; tags and fusion partners are left off. A change or cut given only in a name is not applied to a line headed by its entry.
UniProt P35276: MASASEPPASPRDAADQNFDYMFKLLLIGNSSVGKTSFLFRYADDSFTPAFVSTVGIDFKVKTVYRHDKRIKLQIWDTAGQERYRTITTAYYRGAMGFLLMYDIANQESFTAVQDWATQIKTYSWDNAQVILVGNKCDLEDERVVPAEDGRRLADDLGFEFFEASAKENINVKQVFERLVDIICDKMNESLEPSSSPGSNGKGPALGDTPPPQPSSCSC
UniProt P32848, whole entry: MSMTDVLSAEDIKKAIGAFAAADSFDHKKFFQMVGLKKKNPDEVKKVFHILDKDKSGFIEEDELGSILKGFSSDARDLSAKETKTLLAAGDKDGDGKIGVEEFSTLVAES
UniProt P28658: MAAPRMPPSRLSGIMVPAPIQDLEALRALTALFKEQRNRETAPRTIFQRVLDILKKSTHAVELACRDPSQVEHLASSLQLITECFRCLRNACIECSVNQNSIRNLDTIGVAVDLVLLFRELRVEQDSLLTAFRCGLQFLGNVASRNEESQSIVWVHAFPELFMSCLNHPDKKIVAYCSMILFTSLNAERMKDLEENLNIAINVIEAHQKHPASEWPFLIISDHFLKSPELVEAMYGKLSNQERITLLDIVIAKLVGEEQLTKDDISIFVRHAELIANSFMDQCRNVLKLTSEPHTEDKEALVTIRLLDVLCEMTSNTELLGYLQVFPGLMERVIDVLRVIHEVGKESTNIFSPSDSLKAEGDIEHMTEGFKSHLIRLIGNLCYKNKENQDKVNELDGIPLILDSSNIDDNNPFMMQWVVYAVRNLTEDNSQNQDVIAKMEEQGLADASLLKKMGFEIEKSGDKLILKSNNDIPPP
UniProt P35123: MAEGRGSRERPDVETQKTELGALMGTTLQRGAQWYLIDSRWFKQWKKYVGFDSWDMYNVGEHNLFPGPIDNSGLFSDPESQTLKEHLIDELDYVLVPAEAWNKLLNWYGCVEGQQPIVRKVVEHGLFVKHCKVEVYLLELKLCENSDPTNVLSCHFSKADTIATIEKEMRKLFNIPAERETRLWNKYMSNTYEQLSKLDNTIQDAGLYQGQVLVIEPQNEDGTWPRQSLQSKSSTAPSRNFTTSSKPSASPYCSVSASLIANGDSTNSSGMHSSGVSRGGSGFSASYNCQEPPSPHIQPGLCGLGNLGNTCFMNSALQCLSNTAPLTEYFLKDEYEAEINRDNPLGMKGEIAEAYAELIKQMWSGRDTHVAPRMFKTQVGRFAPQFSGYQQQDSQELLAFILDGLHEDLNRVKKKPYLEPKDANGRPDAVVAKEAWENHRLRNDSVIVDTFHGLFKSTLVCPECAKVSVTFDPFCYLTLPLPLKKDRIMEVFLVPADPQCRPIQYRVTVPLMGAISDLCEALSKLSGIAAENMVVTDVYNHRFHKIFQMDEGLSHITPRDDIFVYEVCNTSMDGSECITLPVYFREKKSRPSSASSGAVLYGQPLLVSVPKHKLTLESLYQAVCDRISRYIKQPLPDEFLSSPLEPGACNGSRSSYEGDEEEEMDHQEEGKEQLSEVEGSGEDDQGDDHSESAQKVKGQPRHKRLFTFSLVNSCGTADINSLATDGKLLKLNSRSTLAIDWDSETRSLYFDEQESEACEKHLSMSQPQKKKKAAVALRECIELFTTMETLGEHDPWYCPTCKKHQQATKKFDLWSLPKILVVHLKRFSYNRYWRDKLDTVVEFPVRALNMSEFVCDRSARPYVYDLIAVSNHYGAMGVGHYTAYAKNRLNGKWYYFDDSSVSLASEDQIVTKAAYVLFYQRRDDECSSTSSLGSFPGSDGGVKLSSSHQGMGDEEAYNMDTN
UniProt P28654: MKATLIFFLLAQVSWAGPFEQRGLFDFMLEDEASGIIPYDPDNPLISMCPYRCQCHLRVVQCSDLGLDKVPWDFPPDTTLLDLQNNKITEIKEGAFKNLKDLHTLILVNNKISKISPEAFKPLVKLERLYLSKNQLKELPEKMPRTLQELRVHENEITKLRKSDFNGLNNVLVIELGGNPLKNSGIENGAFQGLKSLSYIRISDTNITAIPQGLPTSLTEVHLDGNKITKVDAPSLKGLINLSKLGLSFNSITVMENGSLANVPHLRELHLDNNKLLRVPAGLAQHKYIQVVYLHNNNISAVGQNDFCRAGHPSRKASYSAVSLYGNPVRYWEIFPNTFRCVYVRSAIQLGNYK
UniProt P29533: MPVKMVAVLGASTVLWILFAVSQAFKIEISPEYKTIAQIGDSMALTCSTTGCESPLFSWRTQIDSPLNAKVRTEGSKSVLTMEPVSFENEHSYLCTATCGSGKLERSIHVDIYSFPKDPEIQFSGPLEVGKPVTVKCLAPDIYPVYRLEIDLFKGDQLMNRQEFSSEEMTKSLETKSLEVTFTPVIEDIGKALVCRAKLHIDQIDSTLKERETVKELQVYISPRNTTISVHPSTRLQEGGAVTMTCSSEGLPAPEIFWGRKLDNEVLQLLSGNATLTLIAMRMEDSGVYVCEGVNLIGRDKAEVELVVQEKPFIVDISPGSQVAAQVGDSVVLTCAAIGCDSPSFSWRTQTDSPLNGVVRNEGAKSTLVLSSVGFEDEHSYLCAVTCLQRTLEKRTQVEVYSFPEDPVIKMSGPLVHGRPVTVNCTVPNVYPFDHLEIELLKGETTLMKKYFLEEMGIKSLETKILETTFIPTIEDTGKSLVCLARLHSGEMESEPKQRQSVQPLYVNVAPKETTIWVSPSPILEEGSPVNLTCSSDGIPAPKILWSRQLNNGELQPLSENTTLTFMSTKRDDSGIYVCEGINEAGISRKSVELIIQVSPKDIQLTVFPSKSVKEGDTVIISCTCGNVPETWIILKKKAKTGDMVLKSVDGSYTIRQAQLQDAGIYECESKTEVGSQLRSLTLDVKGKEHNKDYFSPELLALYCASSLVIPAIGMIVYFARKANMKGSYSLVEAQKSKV
UniProt P23906: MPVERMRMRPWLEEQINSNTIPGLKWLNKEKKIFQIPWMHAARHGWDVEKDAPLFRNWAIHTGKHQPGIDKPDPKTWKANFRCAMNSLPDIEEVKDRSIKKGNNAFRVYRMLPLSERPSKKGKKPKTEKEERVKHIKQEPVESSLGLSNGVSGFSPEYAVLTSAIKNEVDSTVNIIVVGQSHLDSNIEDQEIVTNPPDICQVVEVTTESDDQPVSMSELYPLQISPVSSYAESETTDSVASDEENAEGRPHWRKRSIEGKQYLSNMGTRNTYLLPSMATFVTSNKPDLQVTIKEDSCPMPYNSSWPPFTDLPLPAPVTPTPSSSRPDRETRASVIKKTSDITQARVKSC
UniProt P16110, whole entry: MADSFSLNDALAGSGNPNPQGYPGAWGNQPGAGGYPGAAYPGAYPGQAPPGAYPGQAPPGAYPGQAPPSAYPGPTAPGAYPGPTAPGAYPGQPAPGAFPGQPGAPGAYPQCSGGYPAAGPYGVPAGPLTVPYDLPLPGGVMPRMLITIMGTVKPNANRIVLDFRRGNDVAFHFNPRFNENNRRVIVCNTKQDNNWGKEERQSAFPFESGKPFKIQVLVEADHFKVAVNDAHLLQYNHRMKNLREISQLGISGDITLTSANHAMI
UniProt P18581: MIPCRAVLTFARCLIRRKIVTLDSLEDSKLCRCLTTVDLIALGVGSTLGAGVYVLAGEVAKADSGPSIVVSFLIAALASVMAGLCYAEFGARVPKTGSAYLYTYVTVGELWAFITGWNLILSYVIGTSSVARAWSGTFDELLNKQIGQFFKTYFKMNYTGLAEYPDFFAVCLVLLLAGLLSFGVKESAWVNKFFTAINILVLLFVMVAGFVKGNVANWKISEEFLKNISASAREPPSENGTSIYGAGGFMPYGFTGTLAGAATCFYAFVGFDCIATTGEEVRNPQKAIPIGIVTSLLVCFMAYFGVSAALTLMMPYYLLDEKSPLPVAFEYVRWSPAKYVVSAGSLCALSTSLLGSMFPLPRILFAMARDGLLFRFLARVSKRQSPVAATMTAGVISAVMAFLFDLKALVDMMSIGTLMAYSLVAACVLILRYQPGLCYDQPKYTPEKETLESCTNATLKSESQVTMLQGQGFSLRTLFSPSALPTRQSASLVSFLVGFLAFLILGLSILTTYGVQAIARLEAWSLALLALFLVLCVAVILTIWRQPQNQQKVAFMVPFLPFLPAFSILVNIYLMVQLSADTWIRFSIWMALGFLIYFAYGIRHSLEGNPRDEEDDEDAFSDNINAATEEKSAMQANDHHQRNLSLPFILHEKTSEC
UniProt P23953: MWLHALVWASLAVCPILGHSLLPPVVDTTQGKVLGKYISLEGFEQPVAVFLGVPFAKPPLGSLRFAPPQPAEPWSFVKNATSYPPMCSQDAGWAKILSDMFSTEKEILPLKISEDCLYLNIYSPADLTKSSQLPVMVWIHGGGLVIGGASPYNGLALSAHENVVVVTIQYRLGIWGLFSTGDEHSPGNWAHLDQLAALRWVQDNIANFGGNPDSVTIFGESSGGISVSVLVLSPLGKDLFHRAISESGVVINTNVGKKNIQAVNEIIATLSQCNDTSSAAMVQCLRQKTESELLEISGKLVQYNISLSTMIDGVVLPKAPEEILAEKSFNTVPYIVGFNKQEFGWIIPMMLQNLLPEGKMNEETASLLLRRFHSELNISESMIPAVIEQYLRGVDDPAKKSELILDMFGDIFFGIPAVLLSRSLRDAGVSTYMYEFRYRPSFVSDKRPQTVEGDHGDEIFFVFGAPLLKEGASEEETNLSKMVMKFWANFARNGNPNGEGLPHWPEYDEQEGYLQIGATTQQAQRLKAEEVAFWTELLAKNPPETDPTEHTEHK
UniProt P21981: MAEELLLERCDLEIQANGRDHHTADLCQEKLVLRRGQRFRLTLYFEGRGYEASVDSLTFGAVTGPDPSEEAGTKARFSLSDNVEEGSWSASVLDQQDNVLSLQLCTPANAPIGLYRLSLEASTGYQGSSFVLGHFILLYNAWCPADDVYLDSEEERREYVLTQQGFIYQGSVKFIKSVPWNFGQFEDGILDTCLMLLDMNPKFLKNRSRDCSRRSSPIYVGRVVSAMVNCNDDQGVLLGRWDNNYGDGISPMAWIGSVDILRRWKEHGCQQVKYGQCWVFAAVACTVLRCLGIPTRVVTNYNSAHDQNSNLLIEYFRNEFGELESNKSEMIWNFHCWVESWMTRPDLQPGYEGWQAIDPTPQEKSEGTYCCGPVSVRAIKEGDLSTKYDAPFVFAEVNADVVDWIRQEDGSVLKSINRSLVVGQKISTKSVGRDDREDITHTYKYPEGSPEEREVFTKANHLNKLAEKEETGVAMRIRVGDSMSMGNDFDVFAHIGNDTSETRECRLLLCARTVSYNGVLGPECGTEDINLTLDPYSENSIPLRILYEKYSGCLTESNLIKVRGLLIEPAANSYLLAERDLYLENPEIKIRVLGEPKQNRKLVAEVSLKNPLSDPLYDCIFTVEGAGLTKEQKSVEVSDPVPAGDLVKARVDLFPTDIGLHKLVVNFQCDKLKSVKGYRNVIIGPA
UniProt P29391: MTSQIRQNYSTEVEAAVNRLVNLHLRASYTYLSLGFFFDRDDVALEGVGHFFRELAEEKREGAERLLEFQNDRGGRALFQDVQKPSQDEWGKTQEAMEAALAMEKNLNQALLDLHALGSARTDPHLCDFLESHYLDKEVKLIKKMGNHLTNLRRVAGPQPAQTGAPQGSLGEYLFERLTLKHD
UniProt P21958: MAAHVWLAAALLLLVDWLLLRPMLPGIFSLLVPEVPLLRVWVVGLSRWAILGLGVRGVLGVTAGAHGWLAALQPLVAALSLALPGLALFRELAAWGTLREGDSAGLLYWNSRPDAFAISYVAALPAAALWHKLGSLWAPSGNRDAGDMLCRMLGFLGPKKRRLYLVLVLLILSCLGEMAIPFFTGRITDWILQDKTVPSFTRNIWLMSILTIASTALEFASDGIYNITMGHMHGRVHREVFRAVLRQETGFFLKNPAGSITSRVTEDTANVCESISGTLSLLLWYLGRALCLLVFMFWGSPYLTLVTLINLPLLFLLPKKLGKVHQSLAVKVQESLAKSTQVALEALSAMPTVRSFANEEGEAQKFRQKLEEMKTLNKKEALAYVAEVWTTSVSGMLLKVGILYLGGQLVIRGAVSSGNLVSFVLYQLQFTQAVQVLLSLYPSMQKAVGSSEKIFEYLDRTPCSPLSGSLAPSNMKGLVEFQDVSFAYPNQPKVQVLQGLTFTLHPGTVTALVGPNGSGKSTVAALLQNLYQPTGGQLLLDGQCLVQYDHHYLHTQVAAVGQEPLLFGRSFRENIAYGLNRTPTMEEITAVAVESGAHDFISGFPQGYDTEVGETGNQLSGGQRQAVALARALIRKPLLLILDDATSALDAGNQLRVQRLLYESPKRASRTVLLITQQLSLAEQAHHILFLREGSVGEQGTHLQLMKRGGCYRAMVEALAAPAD
UniProt P26187: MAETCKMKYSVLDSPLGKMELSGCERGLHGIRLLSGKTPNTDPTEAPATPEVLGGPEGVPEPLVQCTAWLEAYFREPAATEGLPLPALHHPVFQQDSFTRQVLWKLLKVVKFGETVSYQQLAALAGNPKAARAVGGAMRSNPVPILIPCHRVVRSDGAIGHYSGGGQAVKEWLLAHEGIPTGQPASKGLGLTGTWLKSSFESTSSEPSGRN

| Target | log2 fold change |
| --- | --- |
| UniProt P35276 (peptide sequence: TITTAYYR, peptide start residue: 72) | -0.0745 |
| UniProt P32848 (peptide sequence: TLLAAGDKDGDGK, peptide start residue: 85) | 0.174 |
| UniProt P28658 (peptide sequence: VEQDSLLTAFR, peptide start residue: 123) | 0.326 |
| UniProt P17932 (peptide sequence: FKGQILMPNIGYR, peptide start residue: 49) | 0.0922 |
| UniProt P35123 (peptide sequence: KPYLEPK, peptide start residue: 415) | -0.199 |
| UniProt P28654 (peptide sequence: VPAGLAQHK, peptide start residue: 279) | -0.244 |
| UniProt P35288 (peptide sequence: QIQVNDEDVR, peptide start residue: 50) | 0.32 |
| UniProt P24472 (peptide sequence: LYYFNGR, peptide start residue: 7) | 0.0905 |
| UniProt P29533 (peptide sequence: SVDGSYTIR, peptide start residue: 648) | 0.2 |
| UniProt P23906 (peptide sequence: IFQIPWMHAAR, peptide start residue: 33) | -0.142 |
| UniProt P35282 (peptide sequence: FNDKHITTLQASFLTK, peptide start residue: 42) | -0.535 |
| UniProt P16110 (peptide sequence: QDNNWGKEER, peptide start residue: 191) | -0.798 |
| UniProt P18581 (peptide sequence: NLSLPFILHEKTSEC, peptide start residue: 643) | -0.19 |
| UniProt P21300 (peptide sequence: LLNKPGLK, peptide start residue: 170) | -0.196 |
| UniProt P18242 (peptide sequence: YSMQSSPK, peptide start residue: 55) | 0.138 |
| UniProt P29699 (peptide sequence: QLTEHAVEGDCDFHILK, peptide start residue: 104) | -0.103 |

An excerpt of these results, with bars between the fields:
Target | log2 fold change
UniProt P28654 (peptide sequence: VPAGLAQHK, peptide start residue: 279) | -0.244
UniProt P35288 (peptide sequence: QIQVNDEDVR, peptide start residue: 50) | 0.32

Next part:

| Target | log2 fold change |
| --- | --- |
| UniProt P33173 (peptide sequence: VREHPLLGPYVEDLSK, peptide start residue: 168) | 0.151 |
| UniProt P23198 (peptide sequence: KVEEAEPEEFVVEK, peptide start residue: 21) | 0.193 |
| UniProt P34022 (peptide sequence: FLNAENAQK, peptide start residue: 142) | -0.229 |
| UniProt P33609 (peptide sequence: NEPLLTPIPLK, peptide start residue: 220) | -0.623 |
| UniProt P23953 (peptide sequence: AISESGVVINTNVGKK, peptide start residue: 243) | -0.34 |
| UniProt P21981 (peptide sequence: SSPIYVGR, peptide start residue: 215) | 0.217 |
| UniProt P28656 (peptide sequence: YAVLYQPLFDKR, peptide start residue: 106) | -0.161 |
| UniProt P25446 (peptide sequence: IDEIMHDSIQDTAEQK, peptide start residue: 251) | -0.247 |
| UniProt P29391 (peptide sequence: MGNHLTNLR, peptide start residue: 145) | -0.227 |
| UniProt P28660 (peptide sequence: SVLQPSQQK, peptide start residue: 4) | -0.575 |
| UniProt P21614 (peptide sequence: HLSLLTTMSNR, peptide start residue: 208) | 0.244 |
| UniProt P23242 (peptide sequence: KVAAGHELQPLAIVDQRPSSR, peptide start residue: 346) | 0.0285 |
| UniProt P16858 (peptide sequence: VVDLMAYMASKE, peptide start residue: 322) | 0.131 |
| UniProt P21958 (peptide sequence: EGSVGEQGTHLQLMK, peptide start residue: 693) | 0.196 |
| UniProt P26187 (peptide sequence: SSFESTSSEPSGR, peptide start residue: 198) | 0.472 |

Source: the supplement of paper PMC12819154, “High-throughput peptide-centric local stability assay extends protein–ligand identification to membrane proteins, tissues and bacteria” (Nature Structural & Molecular Biology, 2025)
